# Test results: article PMC9886892, “Imidazolium salts as an alternative for anti-Leishmania drugs: Oxidative and immunomodulatory activities” (Frontiers in Immunology, 2023)
# Assays:
# [1] = system: human erythrocytes
# Procedure: Triton X-100 1% was used as positive control. The hemolytic assay was performed according to the procedure used by ([13]). […] The microplate was incubated at 37°C under agitation (90 rpm) for 60 min. Then, the suspension was centrifuged at 3,000 rpm for 5 min, and the absorbance of the supernatant was measured at 540 nm using a spectrophotometer EZ Read 400 from Biochrom. Triton X-100 1% and PBS were used as positive and negative control, respectively. […] The selectivity index (SI) (CC50 or RBC50/IC50 against L. amazonensis) were determined for each compound.
# [2] = system: L. amazonensis promastigotes
# [3] = system: L. amazonensis amastigotes in RAW 264.7 macrophages; assay: Intramacrophage anti-amastigote activity; format: cell-based; settings: Leishmania amazonensis, RAW264.7, 48 h, read-out: IC50 (CI 95%): concentration of compound that causes 50% of L. amazonensis amastigotes mortality
# Procedure: The anti-amastigote assay was performed as previously described ([13]). Macrophages RAW 264.7 cell line (ATCC) were cultured in DMEM plus 10% fetal bovine serum (FBS), penicillin (100 U/mL) and streptomycin (100 µg/mL) until reaching 90% confluence, when were distributed into 96-well microplates at a concentration of 2 x 10^5 cells/well in the presence of DMEM. […] The leishmanicidal activity of macrophages was assessed by determining the number of viable parasites (4 replicates) using a hemocytometer.
# [4] = in vitro; settings: mouse
# [5] = system: Macrophages RAW 264.7 cell line
# [6] = system: L. infantum chagasi promastigotes; assay: microbe, parasite or virus in culture; settings: Leishmania infantum, 48 h, read-out: IC50 (CI 95%): concentration of compound that causes 50% of L. infantum chagasi promastigotes mortality
structure (smiles),measurement,setting,value
"CCCCCCCCCCCCCCCC[n+]1ccccc1.O.[Cl-] [C16PyrCl, 1-hexadecylpyridinium chloride monohydrate, reference compound]","SI: selectivity index, ratio of CC50 for RBC hemolysis/IC50 for L. amazonensis amastigotes",[1],107
same,"SI: selectivity index, ratio of CC50 for RBC hemolysis/IC50 for L. amazonensis promastigotes",[1],5.3
same,RBC50 (CI 95%): concentration of compound that causes 50% of red blood cell hemolysis,[1]; human,21.3 (19.2-23.7) µM
same,IC50,[2],4 µM
same,concentration causing significant parasite mortality,[2],≥ 5 µM
same,IC50,[3],0.2 µM
same,CC50,[4],6.3 µM
same,"SI: selectivity index, ratio of CC50 for macrophage/IC50 for L. amazonensis amastigotes",[5],31.5
same,"SI: selectivity index, ratio of CC50 for macrophage/IC50 for L. amazonensis promastigotes",[5],1.6
same,IC50,[6],2.6 µM
